Consider six molecules from article PMC10532290.

Sequences of proteins named here, by UniProt entry; tags and fusion partners are left off.
UniProt Q14145: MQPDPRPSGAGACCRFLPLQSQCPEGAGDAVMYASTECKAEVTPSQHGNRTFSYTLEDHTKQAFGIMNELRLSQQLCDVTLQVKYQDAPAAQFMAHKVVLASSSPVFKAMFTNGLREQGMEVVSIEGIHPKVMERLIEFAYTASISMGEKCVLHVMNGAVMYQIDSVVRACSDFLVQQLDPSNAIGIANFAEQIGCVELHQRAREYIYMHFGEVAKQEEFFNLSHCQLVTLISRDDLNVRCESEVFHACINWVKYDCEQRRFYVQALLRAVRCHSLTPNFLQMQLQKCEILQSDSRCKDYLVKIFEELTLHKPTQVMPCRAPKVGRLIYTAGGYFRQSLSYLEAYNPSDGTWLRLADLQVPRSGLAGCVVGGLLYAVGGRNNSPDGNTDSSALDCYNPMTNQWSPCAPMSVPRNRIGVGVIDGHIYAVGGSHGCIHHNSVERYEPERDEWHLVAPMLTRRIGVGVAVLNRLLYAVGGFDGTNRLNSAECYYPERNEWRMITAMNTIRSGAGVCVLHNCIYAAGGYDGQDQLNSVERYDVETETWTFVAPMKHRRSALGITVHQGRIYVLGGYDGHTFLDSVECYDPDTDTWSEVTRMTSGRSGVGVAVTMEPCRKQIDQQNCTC

The target of assay [1] is T1, HA-DPP3 (dipeptidyl peptidase 3, wild type) (human) (UniProt Q9NY33).
T1 sequence: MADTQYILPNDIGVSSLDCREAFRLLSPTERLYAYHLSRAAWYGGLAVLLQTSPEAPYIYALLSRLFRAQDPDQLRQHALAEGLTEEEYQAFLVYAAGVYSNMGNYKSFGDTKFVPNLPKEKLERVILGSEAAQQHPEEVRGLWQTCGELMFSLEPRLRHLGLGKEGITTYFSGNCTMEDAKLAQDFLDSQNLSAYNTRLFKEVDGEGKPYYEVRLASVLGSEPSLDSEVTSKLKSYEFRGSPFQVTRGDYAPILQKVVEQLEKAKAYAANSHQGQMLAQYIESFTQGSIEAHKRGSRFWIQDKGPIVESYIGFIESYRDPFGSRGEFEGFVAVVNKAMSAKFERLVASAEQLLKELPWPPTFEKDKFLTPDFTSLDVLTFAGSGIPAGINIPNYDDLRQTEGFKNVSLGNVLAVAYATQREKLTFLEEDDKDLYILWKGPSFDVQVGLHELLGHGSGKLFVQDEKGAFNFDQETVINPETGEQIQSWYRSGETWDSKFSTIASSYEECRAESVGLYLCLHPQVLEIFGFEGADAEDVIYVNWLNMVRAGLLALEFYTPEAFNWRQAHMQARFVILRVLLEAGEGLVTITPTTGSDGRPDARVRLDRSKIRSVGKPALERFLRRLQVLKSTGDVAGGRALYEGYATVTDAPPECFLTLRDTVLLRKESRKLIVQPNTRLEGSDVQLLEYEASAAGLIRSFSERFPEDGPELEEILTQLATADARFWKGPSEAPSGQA
Briefly: co-IP; anti-HA agarose beads precipitate HA-DPP3 from lysates of TRex HEK293T cells (doxycycline-induced) transiently expressing the FLAG-tagged prey; lysis buffer 50 mM Tris pH 7.5, 75 mM NaCl, 1 mM EDTA, 0.1% Triton X-100; 4 °C, 2-3 h; anti-FLAG Western blot.

Assay [2] concerns the target T2, GST-DPP3 (wild type) (human) (UniProt Q9NY33).
T2 sequence: T1 sequence
Briefly: pull-down; GST fusion bound to glutathione-agarose beads, mixed with HEK293T lysate (PBS/1% NP-40) with the FLAG-tagged prey; 1 h at room temperature; anti-FLAG Western blot; only the target purified. On the technique in general: In western blotting, separated proteins are transferred to a membrane and probed.

In assay [3] the target is T3, GST-DPP3-E451A (catalytically inactive variant) (human) (UniProt Q9NY33).
T3 sequence: T1 sequence with E451A
The assay is described as above.

Assay [4] deals with T4, DPP3-VenusfN chimera (human) (UniProt Q9NY33).
T4 sequence: T1 sequence
Description: split reporter; BiFC with Venus fragments (N-terminal 158 aa, C-terminal 82 aa), live NIH 3T3 cells transiently transfected, confocal microscopy.

Changes are numbered by the printed parent chain. These are yes or no findings as the source states them, for the method shown. Binding seen in cells or lysates may run through a third protein. Some entries that bind do so weakly or less than the wild type. For some assays here: Tags and fused reporters may be left off the sequences shown.

On to “FLAG-KEAP1 (Kelch-like ECH-associated protein 1) (from UniProt Q14145 1-624)”, for which the binding entry in assay [1] is listed as “binds”.

B1: FLAG-tagged SH2D3C C-terminal Ras GEF-like domain (f539) (domain or fragment, UniProt Q8N5H7 539-860)
chain: GKTFTVPIVEVTSSFNPATFQSLLIPRDNRPLEVGLLRKVKELLAEVDARTLARHVTKVDCLVARILGVTKEMQTLMGVRWGMELLTLPHGRQLRLDLLERFHTMSIMLAVDILGCTGSAEERAALLHKTIQLAAELRGTMGNMFSFAAVMGALDMAQISRLEQTWVTLRQRHTEGAILYEKKLKPFLKSLNEGKEGPPLSNTTFPHVLPLITLLECDSAPPEGPEPWGSTEHGVEVVLAHLEAARTVAHHGGLYHTNAEVKLQGFQARPELLEVFSTEFQMRLLWGSQGASSSQARRYEKFDKVLTALSHKLEPAVRSSEL
As for B1, the binding result in assay [2] and in assay [3] was “binds” each time.

B2: FLAG-tagged SH2D3C protein isoform 3 (protein, UniProt Q8N5H7-3 1-506)
chain: MKRRSVTMTDGLTADKVTRSDGCPTSTSLPRPRDSIRSCALSMDQIPDLHSPMSPISESPSSPAYSTVTRVHAAPAAPSATALPASPVARRSSEPQLCPGSAPKTHGESDKGPHTSPSHTLGKASPSPSLSSYSDPDSGHYCQLQPPVRGSREWAATETSSQQARSYGERLKELSENGAPEGDWGKTFTVPIVEVTSSFNPATFQSLLIPRDNRPLEVGLLRKVKELLAEVDARTLARHVTKVDCLVARILGVTKEMQTLMGVRWGMELLTLPHGRQLRLDLLERFHTMSIMLAVDILGCTGSAEERAALLHKTIQLAAELRGTMGNMFSFAAVMGALDMAQISRLEQTWVTLRQRHTEGAILYEKKLKPFLKSLNEGKEGPPLSNTTFPHVLPLITLLECDSAPPEGPEPWGSTEHGVEVVLAHLEAARTVAHHGGLYHTNAEVKLQGFQARPELLEVFSTEFQMRLLWGSQGASSSQARRYEKFDKVLTALSHKLEPAVRSSEL
On to B2, for which the binding entry in assay [2], in assay [3] and in assay [1] was “binds” in each case.

B3: SH2D3C-VenusfC chimera (isoform 1) (protein, UniProt Q8N5H7 1-860)
chain: MTEGTKKTSKKFKFFKFKGFGSLSNLPRSFTLRRSSASISRQSHLEPDTFEATQDDMVTVPKSPPAYARSSDMYSHMGTMPRPSIKKAQNSQAARQAQEAGPKPNLVPGGVPDPPGLEAAKEVMVKATGPLEDTPAMEPNPSAVEVDPIRKPEVPTGDVEEERPPRDVHSERAAGEPEAGSDYVKFSKEKYILDSSPEKLHKELEEELKLSSTDLRSHAWYHGRIPREVSETLVQRNGDFLIRDSLTSLGDYVLTCRWRNQALHFKINKVVVKAGESYTHIQYLFEQESFDHVPALVRYHVGSRKAVSEQSGAIIYCPVNRTFPLRYLEASYGLGQGSSKPASPVSPSGPKGSHMKRRSVTMTDGLTADKVTRSDGCPTSTSLPRPRDSIRSCALSMDQIPDLHSPMSPISESPSSPAYSTVTRVHAAPAAPSATALPASPVARRSSEPQLCPGSAPKTHGESDKGPHTSPSHTLGKASPSPSLSSYSDPDSGHYCQLQPPVRGSREWAATETSSQQARSYGERLKELSENGAPEGDWGKTFTVPIVEVTSSFNPATFQSLLIPRDNRPLEVGLLRKVKELLAEVDARTLARHVTKVDCLVARILGVTKEMQTLMGVRWGMELLTLPHGRQLRLDLLERFHTMSIMLAVDILGCTGSAEERAALLHKTIQLAAELRGTMGNMFSFAAVMGALDMAQISRLEQTWVTLRQRHTEGAILYEKKLKPFLKSLNEGKEGPPLSNTTFPHVLPLITLLECDSAPPEGPEPWGSTEHGVEVVLAHLEAARTVAHHGGLYHTNAEVKLQGFQARPELLEVFSTEFQMRLLWGSQGASSSQARRYEKFDKVLTALSHKLEPAVRSSEL
Turning to B3, the binding entry in assay [4] is “binds”.

B4: VenusfC-SH2D3C chimera (isoform 1) (protein, UniProt Q8N5H7 1-860)
chain: B3 chain
B4: the binding result in assay [4] is reported as “binds”.

B5: FLAG-tagged SH2D3C protein isoform 2 (protein, UniProt Q8N5H7-2 1-703)
chain: MTAVGRRCPALGSRGAAGEPEAGSDYVKFSKEKYILDSSPEKLHKELEEELKLSSTDLRSHAWYHGRIPREVSETLVQRNGDFLIRDSLTSLGDYVLTCRWRNQALHFKINKVVVKAGESYTHIQYLFEQESFDHVPALVRYHVGSRKAVSEQSGAIIYCPVNRTFPLRYLEASYGLGQGSSKPASPVSPSGPKGSHMKRRSVTMTDGLTADKVTRSDGCPTSTSLPRPRDSIRSCALSMDQIPDLHSPMSPISESPSSPAYSTVTRVHAAPAAPSATALPASPVARRSSEPQLCPGSAPKTHGESDKGPHTSPSHTLGKASPSPSLSSYSDPDSGHYCQLQPPVRGSREWAATETSSQQARSYGERLKELSENGAPEGDWGKTFTVPIVEVTSSFNPATFQSLLIPRDNRPLEVGLLRKVKELLAEVDARTLARHVTKVDCLVARILGVTKEMQTLMGVRWGMELLTLPHGRQLRLDLLERFHTMSIMLAVDILGCTGSAEERAALLHKTIQLAAELRGTMGNMFSFAAVMGALDMAQISRLEQTWVTLRQRHTEGAILYEKKLKPFLKSLNEGKEGPPLSNTTFPHVLPLITLLECDSAPPEGPEPWGSTEHGVEVVLAHLEAARTVAHHGGLYHTNAEVKLQGFQARPELLEVFSTEFQMRLLWGSQGASSSQARRYEKFDKVLTALSHKLEPAVRSSEL
Regarding B5, the binding entry in assay [2], in assay [3] and in assay [1] was “binds” each time.
